Data from US9914874B2, “Composite nanoparticles including a malonic acid derivative” (3M INNOVATIVE PROPERTIES COMPANY, priority 2013, dated 2018).

Assay: Quantum yield of green InP nanocrystals with sample ligand, Method 1 (toluene, Stock Solution 1), Quantaurus integrating sphere
Settings: ratio to Reference 1 (DDSA ligand), 15 mg ligand in toluene, 90° C. 1.5 hours, excitation 440 nm

CC(CC=C(C(=O)O)C(=O)O)CC(C)(C)C (stereo not shown) [Example 3, 2-(3,5,5-Trimethylhexylidene)propanedioic Acid]
Quantum Yield (QY) relative to DDSA reference: 0.86
